The test system of series [1] is NXF/Arnt2 heterodimer (rat NXF, human Arnt2) (Rattus norvegicus / Homo sapiens). Nature of the series: competition with a labelled probe. The following applies: 100x cold E-box did not compete the CME band; protein in a lysate after overexpression; protein details: full length, baculovirus Sf21 whole cell extract.
Series [2] concerns the target T1, NXF (rNXF) (Rattus norvegicus) (UniProt Q8CJH6).
T1 sequence: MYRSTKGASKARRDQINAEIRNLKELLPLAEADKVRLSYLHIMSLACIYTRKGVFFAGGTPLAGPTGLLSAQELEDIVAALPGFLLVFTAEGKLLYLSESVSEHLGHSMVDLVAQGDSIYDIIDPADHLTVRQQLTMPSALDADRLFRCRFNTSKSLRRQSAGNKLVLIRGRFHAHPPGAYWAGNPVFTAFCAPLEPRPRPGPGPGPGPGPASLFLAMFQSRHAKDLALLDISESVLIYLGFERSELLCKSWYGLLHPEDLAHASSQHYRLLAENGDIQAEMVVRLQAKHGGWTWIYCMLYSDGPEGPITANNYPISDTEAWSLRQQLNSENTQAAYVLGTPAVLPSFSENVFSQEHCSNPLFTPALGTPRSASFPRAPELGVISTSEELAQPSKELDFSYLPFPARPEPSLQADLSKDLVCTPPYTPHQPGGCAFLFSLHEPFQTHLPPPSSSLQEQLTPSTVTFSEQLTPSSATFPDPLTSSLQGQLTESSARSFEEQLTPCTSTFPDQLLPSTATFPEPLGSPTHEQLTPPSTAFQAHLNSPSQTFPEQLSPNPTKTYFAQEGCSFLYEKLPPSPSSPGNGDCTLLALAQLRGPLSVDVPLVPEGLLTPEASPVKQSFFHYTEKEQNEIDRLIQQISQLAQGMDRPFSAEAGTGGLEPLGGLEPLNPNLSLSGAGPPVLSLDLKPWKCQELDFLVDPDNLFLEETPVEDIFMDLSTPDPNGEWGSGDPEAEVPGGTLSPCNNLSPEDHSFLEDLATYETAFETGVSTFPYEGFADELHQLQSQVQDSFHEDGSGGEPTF
Nature of the series: EMSA. The note with it: NXF alone, no band; protein in a lysate after overexpression; protein details: full length, baculovirus Sf21 whole cell extract; label: 5'-32P.

Chains of the proteins cited; added tags and fusions are not shown. A line that says so, or that is headed by a name, gives the form on record, which may keep a tag or linker.
UniProt Q9HBZ2, whole entry: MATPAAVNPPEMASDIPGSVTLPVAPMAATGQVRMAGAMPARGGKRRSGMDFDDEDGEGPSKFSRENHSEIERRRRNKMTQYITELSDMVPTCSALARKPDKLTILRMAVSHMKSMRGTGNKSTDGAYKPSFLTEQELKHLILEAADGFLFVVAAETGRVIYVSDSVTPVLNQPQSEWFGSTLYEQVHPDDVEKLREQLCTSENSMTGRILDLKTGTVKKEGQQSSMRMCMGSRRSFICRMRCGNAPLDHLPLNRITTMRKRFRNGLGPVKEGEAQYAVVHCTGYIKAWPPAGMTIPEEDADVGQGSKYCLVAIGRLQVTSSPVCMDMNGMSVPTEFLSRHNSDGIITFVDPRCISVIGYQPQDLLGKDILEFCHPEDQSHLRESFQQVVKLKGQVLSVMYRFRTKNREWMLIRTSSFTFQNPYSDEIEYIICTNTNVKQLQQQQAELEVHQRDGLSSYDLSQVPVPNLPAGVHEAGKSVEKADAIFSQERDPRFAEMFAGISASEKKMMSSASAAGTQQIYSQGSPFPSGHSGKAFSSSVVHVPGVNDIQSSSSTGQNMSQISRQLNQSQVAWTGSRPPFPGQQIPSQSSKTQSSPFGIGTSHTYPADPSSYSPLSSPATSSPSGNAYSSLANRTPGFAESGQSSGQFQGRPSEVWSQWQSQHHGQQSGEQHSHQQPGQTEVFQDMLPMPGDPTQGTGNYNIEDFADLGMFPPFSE
NXF/Arnt2 heterodimer (rat NXF, human Arnt2) (Rattus norvegicus / Homo sapiens), one chain, as listed by the source: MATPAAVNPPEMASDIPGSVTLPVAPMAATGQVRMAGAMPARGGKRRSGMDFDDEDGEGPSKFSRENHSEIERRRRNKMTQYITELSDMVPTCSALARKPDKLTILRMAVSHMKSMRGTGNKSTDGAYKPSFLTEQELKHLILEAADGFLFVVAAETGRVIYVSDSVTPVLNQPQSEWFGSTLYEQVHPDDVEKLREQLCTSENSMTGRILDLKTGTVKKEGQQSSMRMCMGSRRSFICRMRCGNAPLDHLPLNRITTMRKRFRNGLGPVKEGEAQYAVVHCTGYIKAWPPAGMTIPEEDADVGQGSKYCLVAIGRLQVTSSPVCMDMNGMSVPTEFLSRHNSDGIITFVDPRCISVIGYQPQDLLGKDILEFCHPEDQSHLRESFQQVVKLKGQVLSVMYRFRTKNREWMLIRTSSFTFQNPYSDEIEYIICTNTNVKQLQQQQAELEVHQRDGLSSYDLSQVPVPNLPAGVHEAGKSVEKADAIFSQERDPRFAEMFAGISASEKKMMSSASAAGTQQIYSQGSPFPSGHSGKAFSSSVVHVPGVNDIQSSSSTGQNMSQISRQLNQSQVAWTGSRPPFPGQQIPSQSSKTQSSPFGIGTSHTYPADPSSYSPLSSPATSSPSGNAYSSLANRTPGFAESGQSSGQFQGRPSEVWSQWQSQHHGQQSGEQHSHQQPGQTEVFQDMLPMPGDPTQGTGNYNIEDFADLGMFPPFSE

Series [3] deals with Arnt2 (Homo sapiens) (UniProt Q9HBZ2). Nature of the series: EMSA. The following applies: Arnt2 alone, no band; protein in a lysate after overexpression; protein details: full length, baculovirus Sf21 whole cell extract; label: 5'-32P.
Series [4] deals with NXF/Arnt2 heterodimer (rat NXF, human Arnt2) (Rattus norvegicus / Homo sapiens). As to the kind of experiment: EMSA. The note with it: 20 mM HEPES pH 7.9, 100 mM NaCl, 1 mM DTT, 5% glycerol, 0.1 ug/ul poly dI-dC, 25 C; competed by 100x cold CME; protein in a lysate after overexpression; protein details: full length, baculovirus Sf21 whole cell extract; label: 5'-32P.
The target in series [5] is Arnt2 (Homo sapiens) (UniProt Q9HBZ2). Nature of the series: activity in cells. The note with it: Arnt2 alone, HeLa luciferase reporter; protein in cells; protein details: full length, pRC/RSV expression in HeLa; only the site is given.
Series [6] deals with NXF/Arnt2 heterodimer (mouse NXF, human Arnt2) (Mus musculus / Homo sapiens). As to the kind of experiment: activity in cells. The note with it: luciferase reporter in HeLa, protein in cells, protein details: full length, pRC/RSV expression in HeLa, only the site is given.
Series [7] has as its target T2, NXF (mNXF) (Mus musculus) (UniProt Q8BGD7).
T2 sequence: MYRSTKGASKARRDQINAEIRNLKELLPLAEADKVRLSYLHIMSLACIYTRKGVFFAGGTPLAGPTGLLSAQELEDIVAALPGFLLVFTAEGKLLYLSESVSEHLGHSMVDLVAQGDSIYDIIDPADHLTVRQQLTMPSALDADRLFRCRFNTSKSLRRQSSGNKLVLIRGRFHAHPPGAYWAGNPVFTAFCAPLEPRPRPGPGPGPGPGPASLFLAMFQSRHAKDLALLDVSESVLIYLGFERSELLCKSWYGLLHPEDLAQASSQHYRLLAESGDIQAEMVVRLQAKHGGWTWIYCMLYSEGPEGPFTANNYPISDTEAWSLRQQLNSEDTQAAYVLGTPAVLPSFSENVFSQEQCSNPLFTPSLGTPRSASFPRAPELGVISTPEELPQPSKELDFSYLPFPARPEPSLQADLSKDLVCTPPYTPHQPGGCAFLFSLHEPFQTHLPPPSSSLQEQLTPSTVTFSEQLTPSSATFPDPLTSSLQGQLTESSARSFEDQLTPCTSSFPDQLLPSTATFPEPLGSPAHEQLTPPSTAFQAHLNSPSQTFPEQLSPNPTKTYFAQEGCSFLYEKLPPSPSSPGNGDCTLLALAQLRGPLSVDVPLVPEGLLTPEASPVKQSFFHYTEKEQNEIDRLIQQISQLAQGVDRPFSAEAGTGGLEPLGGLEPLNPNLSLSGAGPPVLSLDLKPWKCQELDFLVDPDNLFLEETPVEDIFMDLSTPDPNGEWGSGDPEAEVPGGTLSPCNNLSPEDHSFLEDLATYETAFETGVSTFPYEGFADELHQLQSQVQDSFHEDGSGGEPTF
Nature of the series: activity in cells. The note with it: NXF alone, HeLa luciferase reporter; protein in cells; protein details: full length, pRC/RSV expression in HeLa; only the site is given.

For some of these results: A negative result means that nothing was seen under these conditions. For some of these results: Tags and fusion partners may be left off the protein sequences shown. For some of these results: Results from cells or extracts need not show a direct contact.

Consider “CAAGTCCACGTGCAGGGA (double strand) [E-box double-stranded oligonucleotide]”, for which the binding result in series [1] is listed as “no binding”.
Turning to “CTAGAAATTTGTACGTGCCACAGA (double strand) [CME double-stranded oligonucleotide]”, the binding result in series [2] is “no binding”; in series [3], “no binding”; in series [4] it was “binds”.
Turning to “CTAGCCTAGAAATTTGTACGTGCCACAGACTAGAAATTTGTACGTGCCACAGAG / CTAGCTCTGTGGCACGTACAAATTTCTAGTCTGTGGCACGTACAAATTTCTAGG [CMEx4 reporter insert (2-copy unit, two in tandem)]”, the “activity on this sequence” value in series [5] was “not active”; in series [6] (potent activation, dose dependent on NXF (FIG. 8)), “active”; in series [7], “not active”.
Regarding “CTTTAGCCACGTGACAGTGTAAGCACACGTGGGCCCTCAAGTCCACGTGCAGGGAC / TCGAGTCCCTGCACGTGGACTTGAGGGCCCACGTGTGCTTACACTGTCACGTGGCTAAAGGTAC [(Ebox)x3 reporter insert]”, the “activity on this sequence” value in series [5], in series [6] (not influenced) and in series [7] was “not active” throughout.

The record behind these values is patent US20060216705.
